From PMC9866090
No constants are given. Whether binding was seen depends on the method and setting. In cells and extracts the contact can be indirect. These calls come from enrichment with a bait or labelling near it, and not all partners need be listed. For some of these results: A no says only that the protein was not detected with the bait. For some of these results: Sequences can lack the tags named with a protein.

Protein sequences, listed by entry. Tags and fused reporters are not part of them. Residues count along the entry.
UniProt O75494: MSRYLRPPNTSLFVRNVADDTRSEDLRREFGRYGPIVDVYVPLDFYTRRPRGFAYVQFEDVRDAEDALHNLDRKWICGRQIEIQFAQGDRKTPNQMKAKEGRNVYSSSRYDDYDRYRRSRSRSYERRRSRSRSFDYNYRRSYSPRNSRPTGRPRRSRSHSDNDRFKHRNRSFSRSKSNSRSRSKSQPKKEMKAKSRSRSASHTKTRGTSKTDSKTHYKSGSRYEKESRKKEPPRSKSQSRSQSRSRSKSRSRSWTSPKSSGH
UniProt P35249: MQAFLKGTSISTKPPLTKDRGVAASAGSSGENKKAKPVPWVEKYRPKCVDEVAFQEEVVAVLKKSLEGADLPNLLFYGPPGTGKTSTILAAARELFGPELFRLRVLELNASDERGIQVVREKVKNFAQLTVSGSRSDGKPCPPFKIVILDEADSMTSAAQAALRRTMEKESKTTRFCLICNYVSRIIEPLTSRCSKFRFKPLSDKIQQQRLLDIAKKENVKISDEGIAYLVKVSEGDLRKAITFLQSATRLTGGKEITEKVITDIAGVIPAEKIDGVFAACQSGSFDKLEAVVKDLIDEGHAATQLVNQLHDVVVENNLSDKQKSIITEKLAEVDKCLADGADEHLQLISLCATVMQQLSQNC
UniProt P38159: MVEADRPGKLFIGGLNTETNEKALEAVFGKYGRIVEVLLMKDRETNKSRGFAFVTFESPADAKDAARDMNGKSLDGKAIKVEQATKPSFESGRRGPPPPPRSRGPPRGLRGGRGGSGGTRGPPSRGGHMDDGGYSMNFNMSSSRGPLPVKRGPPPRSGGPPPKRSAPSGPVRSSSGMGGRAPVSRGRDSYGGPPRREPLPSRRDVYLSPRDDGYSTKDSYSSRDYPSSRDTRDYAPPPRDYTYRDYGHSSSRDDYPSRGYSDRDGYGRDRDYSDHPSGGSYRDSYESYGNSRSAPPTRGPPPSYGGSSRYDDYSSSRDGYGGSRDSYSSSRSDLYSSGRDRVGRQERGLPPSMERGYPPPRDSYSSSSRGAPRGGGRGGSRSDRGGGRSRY
UniProt P62995: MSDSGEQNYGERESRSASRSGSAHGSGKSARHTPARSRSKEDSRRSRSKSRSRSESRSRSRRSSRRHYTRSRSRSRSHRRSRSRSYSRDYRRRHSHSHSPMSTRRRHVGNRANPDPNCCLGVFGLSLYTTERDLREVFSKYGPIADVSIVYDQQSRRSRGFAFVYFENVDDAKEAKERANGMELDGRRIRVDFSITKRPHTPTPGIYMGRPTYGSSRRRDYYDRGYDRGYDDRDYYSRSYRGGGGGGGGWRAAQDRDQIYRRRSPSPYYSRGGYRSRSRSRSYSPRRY
UniProt Q9BQE3: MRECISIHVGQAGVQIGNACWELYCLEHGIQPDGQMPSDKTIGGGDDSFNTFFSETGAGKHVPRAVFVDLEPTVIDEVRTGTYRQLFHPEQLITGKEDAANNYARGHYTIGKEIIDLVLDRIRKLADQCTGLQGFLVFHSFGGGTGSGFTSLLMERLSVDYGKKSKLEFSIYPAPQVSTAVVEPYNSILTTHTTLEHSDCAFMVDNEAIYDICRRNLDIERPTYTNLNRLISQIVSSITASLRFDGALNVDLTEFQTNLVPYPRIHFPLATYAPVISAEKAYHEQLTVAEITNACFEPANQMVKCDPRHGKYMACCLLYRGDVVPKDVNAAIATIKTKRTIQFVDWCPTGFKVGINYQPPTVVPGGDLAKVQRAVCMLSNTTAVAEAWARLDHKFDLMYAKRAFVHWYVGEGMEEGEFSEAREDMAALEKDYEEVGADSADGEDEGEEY
UniProt Q99714: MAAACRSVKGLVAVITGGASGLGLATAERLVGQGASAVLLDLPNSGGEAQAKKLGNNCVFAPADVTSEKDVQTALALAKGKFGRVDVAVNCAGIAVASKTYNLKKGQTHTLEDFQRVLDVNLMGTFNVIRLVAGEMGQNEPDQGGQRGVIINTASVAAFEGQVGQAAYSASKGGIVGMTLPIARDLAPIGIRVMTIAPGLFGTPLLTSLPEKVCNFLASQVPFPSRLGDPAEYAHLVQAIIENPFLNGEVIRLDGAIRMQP
UniProt P35250: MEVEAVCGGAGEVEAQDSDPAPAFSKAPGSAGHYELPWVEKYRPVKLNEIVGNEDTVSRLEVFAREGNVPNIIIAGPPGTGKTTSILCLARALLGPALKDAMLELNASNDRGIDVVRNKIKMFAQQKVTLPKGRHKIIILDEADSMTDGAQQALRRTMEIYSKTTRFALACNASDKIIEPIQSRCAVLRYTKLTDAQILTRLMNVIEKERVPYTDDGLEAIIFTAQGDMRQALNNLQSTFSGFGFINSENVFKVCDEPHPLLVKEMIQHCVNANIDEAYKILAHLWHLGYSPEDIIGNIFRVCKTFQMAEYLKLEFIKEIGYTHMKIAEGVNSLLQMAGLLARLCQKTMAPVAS
UniProt P21127: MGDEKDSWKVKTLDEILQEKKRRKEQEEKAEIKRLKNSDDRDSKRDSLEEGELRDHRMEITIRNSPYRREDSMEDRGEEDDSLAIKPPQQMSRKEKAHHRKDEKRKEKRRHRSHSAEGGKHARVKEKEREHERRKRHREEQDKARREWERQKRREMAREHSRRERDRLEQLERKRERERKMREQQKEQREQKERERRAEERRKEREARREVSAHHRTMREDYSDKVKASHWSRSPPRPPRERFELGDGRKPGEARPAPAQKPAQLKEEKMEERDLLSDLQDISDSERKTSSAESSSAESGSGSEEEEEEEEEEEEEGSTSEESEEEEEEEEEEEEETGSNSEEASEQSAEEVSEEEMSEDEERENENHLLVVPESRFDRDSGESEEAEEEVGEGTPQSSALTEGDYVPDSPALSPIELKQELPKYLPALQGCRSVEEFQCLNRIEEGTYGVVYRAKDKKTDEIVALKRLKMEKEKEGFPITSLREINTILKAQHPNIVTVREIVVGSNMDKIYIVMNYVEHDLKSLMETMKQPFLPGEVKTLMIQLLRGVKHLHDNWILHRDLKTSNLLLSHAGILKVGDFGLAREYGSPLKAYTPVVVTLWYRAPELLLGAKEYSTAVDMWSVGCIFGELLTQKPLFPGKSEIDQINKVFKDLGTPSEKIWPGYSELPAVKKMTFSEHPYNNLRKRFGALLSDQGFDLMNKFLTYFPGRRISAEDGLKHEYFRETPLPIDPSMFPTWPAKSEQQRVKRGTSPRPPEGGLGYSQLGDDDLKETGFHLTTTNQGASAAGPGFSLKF
UniProt P38646, residues 47-679: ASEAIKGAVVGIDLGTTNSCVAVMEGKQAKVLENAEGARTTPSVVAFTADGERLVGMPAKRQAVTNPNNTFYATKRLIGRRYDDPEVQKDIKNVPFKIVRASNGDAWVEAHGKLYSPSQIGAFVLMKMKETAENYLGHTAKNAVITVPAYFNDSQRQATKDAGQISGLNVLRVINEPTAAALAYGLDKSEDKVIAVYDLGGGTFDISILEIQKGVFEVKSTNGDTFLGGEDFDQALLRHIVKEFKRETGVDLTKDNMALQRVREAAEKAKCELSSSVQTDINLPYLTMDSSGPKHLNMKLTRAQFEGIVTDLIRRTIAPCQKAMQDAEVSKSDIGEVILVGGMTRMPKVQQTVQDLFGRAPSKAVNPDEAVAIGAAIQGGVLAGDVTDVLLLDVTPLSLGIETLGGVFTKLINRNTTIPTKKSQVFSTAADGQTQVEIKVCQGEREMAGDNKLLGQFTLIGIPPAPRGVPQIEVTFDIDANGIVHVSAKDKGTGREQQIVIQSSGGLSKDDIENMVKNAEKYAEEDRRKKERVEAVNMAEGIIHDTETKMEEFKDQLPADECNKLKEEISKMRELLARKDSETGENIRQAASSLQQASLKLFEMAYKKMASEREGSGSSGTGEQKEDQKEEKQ

B1: PRIM2 (protein, UniProt P49643 1-509)
chain: MEFSGRKWRKLRLAGDQRNASYPHCLQFYLQPPSENISLIEFENLAIDRVKLLKSVENLGVSYVKGTEQYQSKLESELRKLKFSYRENLEDEYEPRRRDHISHFILRLAYCQSEELRRWFIQQEMDLLRFRFSILPKDKIQDFLKDSQLQFEAISDEEKTLREQEIVASSPSLSGLKLGFESIYKIPFADALDLFRGRKVYLEDGFAYVPLKDIVAIILNEFRAKLSKALALTARSLPAVQSDERLQPLLNHLSHSYTGQDYSTQGNVGKISLDQIDLLSTKSFPPCMRQLHKALRENHHLRHGGRMQYGLFLKGIGLTLEQALQFWKQEFIKGKMDPDKFDKGYSYNIRHSFGKEGKRTDYTPFSCLKIILSNPPSQGDYHGCPFRHSDPELLKQKLQSYKISPGGISQILDLVKGTHYQVACQKYFEMIHNVDDCGFSLNHPNQFFCESQRILNGGKDIKKEPIQPETPQPKPSVQKTKDASSALASLNSSLEMDMEGLEDYFSEDS
B2: PRDX1 (protein, UniProt Q06830 1-199)
chain: MSSGNAKIGHPAPNFKATAVMPDGQFKDISLSDYKGKYVVFFFYPLDFTFVCPTEIIAFSDRAEEFKKLNCQVIGASVDSHFCHLAWVNTPKKQGGLGPMNIPLVSDPKRTIAQDYGVLKADEGISFRGLFIIDDKGILRQITVNDLPVGRSVDETLRLVQAFQFTDKHGEVCPAGWKPGSDTIKPDVQKSKEYFSKQK
B3: BANF1 (protein, UniProt O75531 1-89)
chain: MTTSQKHRDFVAEPMGEKPVGSLAGIGEVLGKKLEERGFDKAYVVLGQFLVLKKDEDLFREWLKDTCGANAKQSRDCFGCLREWCDAFL
B4: LIG3 (protein, UniProt P49916 43-1009)
chain: LLHGHPLFLRRKPVLSFQGSHLRSRATYLVFLPGLHVGLCSGPCEMAEQRFCVDYAKRGTAGCKKCKEKIVKGVCRIGKVVPNPFSESGGDMKEWYHIKCMFEKLERARATTKKIEDLTELEGWEELEDNEKEQITQHIADLSSKAAGTPKKKAVVQAKLTTTGQVTSPVKGASFVTSTNPRKFSGFSAKPNNSGEAPSSPTPKRSLSSSKCDPRHKDCLLREFRKLCAMVADNPSYNTKTQIIQDFLRKGSAGDGFHGDVYLTVKLLLPGVIKTVYNLNDKQIVKLFSRIFNCNPDDMARDLEQGDVSETIRVFFEQSKSFPPAAKSLLTIQEVDEFLLRLSKLTKEDEQQQALQDIASRCTANDLKCIIRLIKHDLKMNSGAKHVLDALDPNAYEAFKASRNLQDVVERVLHNAQEVEKEPGQRRALSVQASLMTPVQPMLAEACKSVEYAMKKCPNGMFSEIKYDGERVQVHKNGDHFSYFSRSLKPVLPHKVAHFKDYIPQAFPGGHSMILDSEVLLIDNKTGKPLPFGTLGVHKKAAFQDANVCLFVFDCIYFNDVSLMDRPLCERRKFLHDNMVEIPNRIMFSEMKRVTKALDLADMITRVIQEGLEGLVLKDVKGTYEPGKRHWLKVKKDYLNEGAMADTADLVVLGAFYGQGSKGGMMSIFLMGCYDPGSQKWCTVTKCAGGHDDATLARLQNELDMVKISKDPSKIPSWLKVNKIYYPDFIVPDPKKAAVWEITGAEFSKSEAHTADGISIRFPRCTRIRDDKDWKSATNLPQLKELYQLSKEKADFTVVAGDEGSSTTGGSSEENKGPSGSAVSRKAPSKPSASTKKAEGKLSNSNSKDGNMQTAKPSAMKVGEKLATKSSPVKVGEKRKAADETLCQTKVLLDIFTGVRLYLPPSTPDFSRLRRYFVAFDGDLVQEFDMTSATHVLGSRDKNPAAQQVSPEWIWACIRKRRLVAPC
B5: RFC1 (protein, UniProt P35251 1-1148)
chain: MDIRKFFGVIPSGKKLVSETVKKNEKTKSDEETLKAKKGIKEIKVNSSRKEDDFKQKQPSKKKRIIYDSDSESEETLQVKNAKKPPEKLPVSSKPGKISRQDPVTYISETDEEDDFMCKKAASKSKENGRSTNSHLGTSNMKKNEENTKTKNKPLSPIKLTPTSVLDYFGTGSVQRSNKKMVASKRKELSQNTDESGLNDEAIAKQLQLDEDAELERQLHEDEEFARTLAMLDEEPKTKKARKDTEAGETFSSVQANLSKAEKHKYPHKVKTAQVSDERKSYSPRKQSKYESSKESQQHSKSSADKIGEVSSPKASSKLAIMKRKEESSYKEIEPVASKRKENAIKLKGETKTPKKTKSSPAKKESVSPEDSEKKRTNYQAYRSYLNREGPKALGSKEIPKGAENCLEGLIFVITGVLESIERDEAKSLIERYGGKVTGNVSKKTNYLVMGRDSGQSKSDKAAALGTKIIDEDGLLNLIRTMPGKKSKYEIAVETEMKKESKLERTPQKNVQGKRKISPSKKESESKKSRPTSKRDSLAKTIKKETDVFWKSLDFKEQVAEETSGDSKARNLADDSSENKVENLLWVDKYKPTSLKTIIGQQGDQSCANKLLRWLRNWQKSSSEDKKHAAKFGKFSGKDDGSSFKAALLSGPPGVGKTTTASLVCQELGYSYVELNASDTRSKSSLKAIVAESLNNTSIKGFYSNGAASSVSTKHALIMDEVDGMAGNEDRGGIQELIGLIKHTKIPIICMCNDRNHPKIRSLVHYCFDLRFQRPRVEQIKGAMMSIAFKEGLKIPPPAMNEIILGANQDIRQVLHNLSMWCARSKALTYDQAKADSHRAKKDIKMGPFDVARKVFAAGEETAHMSLVDKSDLFFHDYSIAPLFVQENYIHVKPVAAGGDMKKHLMLLSRAADSICDGDLVDSQIRSKQNWSLLPAQAIYASVLPGELMRGYMTQFPTFPSWLGKHSSTGKHDRIVQDLALHMSLRTYSSKRTVNMDYLSLLRDALVQPLTSQGVDGVQDVVALMDTYYLMKEDFENIMEISSWGGKPSPFSKLDPKVKAAFTRAYNKEAHLTPYSLQAIKASRHSTSPSLDSEYNEELNEDDSQSDEKDQDAIETDAMIKKKTKSSKPSKPEKDKEPRKGKGKSSKK
B6: Apoptotic Chromatin Condensation Inducer 1 (protein, UniProt Q9UKV3 1-1341)
chain: MWRRKHPRTSGGTRGVLSGNRGVEYGSGRGHLGTFEGRWRKLPKMPEAVGTDPSTSRKMAELEEVTLDGKPLQALRVTDLKAALEQRGLAKSGQKSALVKRLKGALMLENLQKHSTPHAAFQPNSQIGEEMSQNSFIKQYLEKQQELLRQRLEREAREAAELEEASAESEDEMIHPEGVASLLPPDFQSSLERPELELSRHSPRKSSSISEEKGDSDDEKPRKGERRSSRVRQARAAKLSEGSQPAEEEEDQETPSRNLRVRADRNLKTEEEEEEEEEEEEDDEEEEGDDEGQKSREAPILKEFKEEGEEIPRVKPEEMMDERPKTRSQEQEVLERGGRFTRSQEEARKSHLARQQQEKEMKTTSPLEEEEREIKSSQGLKEKSKSPSPPRLTEDRKKASLVALPEQTASEEETPPPLLTKEASSPPPHPQLHSEEEIEPMEGPAPAVLIQLSPPNTDADTRELLVSQHTVQLVGGLSPLSSPSDTKAESPAEKVPEESVLPLVQKSTLADYSAQKDLEPESDRSAQPLPLKIEELALAKGITEECLKQPSLEQKEGRRASHTLLPSHRLKQSADSSSSRSSSSSSSSSRSRSRSPDSSGSRSHSPLRSKQRDVAQARTHANPRGRPKMGSRSTSESRSRSRSRSRSASSNSRKSLSPGVSRDSSTSYTETKDPSSGQEVATPPVPQLQVCEPKERTSTSSSSVQARRLSQPESAEKHVTQRLQPERGSPKKCEAEEAEPPAATQPQTSETQTSHLPESERIHHTVEEKEEVTMDTSENRPENDVPEPPMPIADQVSNDDRPEGSVEDEEKKESSLPKSFKRKISVVSATKGVPAGNSDTEGGQPGRKRRWGASTATTQKKPSISITTESLKSLIPDIKPLAGQEAVVDLHADDSRISEDETERNGDDGTHDKGLKICRTVTQVVPAEGQENGQREEEEEEKEPEAEPPVPPQVSVEVALPPPAEHEVKKVTLGDTLTRRSISQQKSGVSITIDDPVRTAQVPSPPRGKISNIVHISNLVRPFTLGQLKELLGRTGTLVEEAFWIDKIKSHCFVTYSTVEEAVATRTALHGVKWPQSNPKFLCADYAEQDELDYHRGLLVDRPSETKTEEQGIPRPLHPPPPPPVQPPQHPRAEQREQERAVREQWAEREREMERRERTRSEREWDRDKVREGPRSRSRSRDRRRKERAKSKEKKSEKKEKAQEEPPAKLLDDLFRKTKAAPCIYWLPLTDSQIVQKEAERAERAKEREKRRKEQEEEEQKEREKEAERERNRQLEREKRREHSRERDRERERERERDRGDRDRDRERDRERGRERDRRDTKRHSRSRSRSTPVRDRGGRR
B7: RNPS1 (protein, UniProt Q15287 1-305)
chain: MDLSGVKKKSLLGVKENNKKSSTRAPSPTKRKDRSDEKSKDRSKDKGATKESSEKDRGRDKTRKRRSASSGSSSTRSRSSSTSSSGSSTSTGSSSGSSSSSASSRSGSSSTSRSSSSSSSSGSPSPSRRRHDNRRRSRSKSKPPKRDEKERKRRSPSPKPTKVHIGRLTRNVTKDHIMEIFSTYGKIKMIDMPVERMHPHLSKGYAYVEFENPDEAEKALKHMDGGQIDGQEITATAVLAPWPRPPPRRFSPPRRMLPPPPMWRRSPPRMRRRSRSPRRRSPVRRRSRSPGRRRHRSRSSSNSSR

Tests used:
[1] = biological target: NS1-T585E-GFP (rat parvovirus H1 (H1-PV)) (UniProt P03133); assay: affinity purification with mass spectrometry
[2] = biological target: NS1-T585E-BioID2-HA (rat parvovirus H1 (H1-PV)) (UniProt P03133); assay: proximity labelling
[3] = biological target: T1, NS1-wt-BioID2-HA (rat parvovirus H1 (H1-PV)) (UniProt P03133); assay: proximity labelling
T1 sequence: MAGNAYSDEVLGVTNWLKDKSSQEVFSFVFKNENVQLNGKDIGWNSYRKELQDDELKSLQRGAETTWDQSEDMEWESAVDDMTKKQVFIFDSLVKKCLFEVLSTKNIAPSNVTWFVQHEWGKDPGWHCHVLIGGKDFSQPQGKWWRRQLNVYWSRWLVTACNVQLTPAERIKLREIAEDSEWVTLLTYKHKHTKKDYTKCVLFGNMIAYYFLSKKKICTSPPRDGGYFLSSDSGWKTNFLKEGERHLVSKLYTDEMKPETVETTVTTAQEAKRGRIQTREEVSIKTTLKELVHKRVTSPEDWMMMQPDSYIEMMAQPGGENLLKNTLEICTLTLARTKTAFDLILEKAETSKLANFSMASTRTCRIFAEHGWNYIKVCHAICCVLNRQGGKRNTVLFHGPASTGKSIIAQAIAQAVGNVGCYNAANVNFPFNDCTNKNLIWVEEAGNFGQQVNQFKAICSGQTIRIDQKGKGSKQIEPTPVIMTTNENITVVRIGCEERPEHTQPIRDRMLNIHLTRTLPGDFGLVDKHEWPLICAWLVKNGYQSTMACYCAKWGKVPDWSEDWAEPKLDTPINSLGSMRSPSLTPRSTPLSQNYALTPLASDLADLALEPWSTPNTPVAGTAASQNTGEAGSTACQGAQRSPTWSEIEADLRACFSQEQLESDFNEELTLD

[4] = biological target: T2, NS1-wt-GFP (rat parvovirus H1 (H1-PV)) (UniProt P03133); assay: affinity purification with mass spectrometry
T2 sequence: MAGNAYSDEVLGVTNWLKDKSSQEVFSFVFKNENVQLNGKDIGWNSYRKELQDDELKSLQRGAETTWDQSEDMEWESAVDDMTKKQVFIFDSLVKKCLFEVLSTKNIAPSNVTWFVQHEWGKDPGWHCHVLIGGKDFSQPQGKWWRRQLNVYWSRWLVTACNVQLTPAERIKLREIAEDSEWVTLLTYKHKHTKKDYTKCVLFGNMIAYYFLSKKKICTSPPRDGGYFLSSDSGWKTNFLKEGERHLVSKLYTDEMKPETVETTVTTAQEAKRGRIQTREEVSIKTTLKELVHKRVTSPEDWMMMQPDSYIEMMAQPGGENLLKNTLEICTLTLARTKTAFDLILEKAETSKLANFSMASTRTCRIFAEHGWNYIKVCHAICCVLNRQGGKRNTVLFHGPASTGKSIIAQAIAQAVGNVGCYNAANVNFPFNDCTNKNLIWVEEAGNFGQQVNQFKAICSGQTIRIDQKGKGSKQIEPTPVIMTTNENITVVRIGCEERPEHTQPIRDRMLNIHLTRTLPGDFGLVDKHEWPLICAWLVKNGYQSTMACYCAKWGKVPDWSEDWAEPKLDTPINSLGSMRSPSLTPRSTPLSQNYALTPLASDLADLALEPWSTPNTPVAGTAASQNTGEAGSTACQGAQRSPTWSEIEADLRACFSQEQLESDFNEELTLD

Molecule | binding [1] | binding [2] | binding [3] | binding [4]
SRSF10 (from UniProt O75494 1-262) | binds | – | – | –
RFC4 (from UniProt P35249 1-363) | binds | binds | – | –
RBMX (from UniProt P38159 1-391) | binds | binds | – | –
TRA2B (from UniProt P62995 1-288) | binds | binds | – | –
TUBA1C (from UniProt Q9BQE3 1-449) | no binding | – | binds | binds
HSD17B10 (from UniProt Q99714 1-261) | – | – | binds | binds
RFC2 (from UniProt P35250 1-354) | binds | binds | – | –
CDK11B (from UniProt P21127 1-795) | binds | – | – | –
HSPA9 (from UniProt P38646 47-679) | binds | binds | – | –
B1 | binds | – | – | –
B2 | binds | binds | – | –
B3 | binds | binds | – | –
B4 | binds | binds | binds | binds
B5 | binds | – | – | –
B6 | binds | – | – | binds
B7 | binds | binds | – | –
